Assay results: patent US7825156B2, “Method of treating bipolar depression with a benzamide derivative” (Copharms, priority 2007, dated 2010)
For at least one compound, name, drawing or mass did not settle the structure.

Experiments:
bipolar disorder = test: Earlier treatments in the case histories (manic episodes, maintenance, earlier depressive condition); format: in vivo, patient
bipolar depression = test: Case reports: treatment of bipolar depression in patients with bipolar I or II disorder; conditions: Case 11; combination of lithium and divalproate 750 mg/d, lithium increased to obtain 0.9 mEq/L

`[Li]` [lithium, lithium carbonate (Li2CO3)] was tested, and the therapeutic outcome (bipolar disorder; Case 9, bipolar I, lithium, non-compliance) was “therapeutic failure”, the response (bipolar disorder; Case 11, bipolar I, lithium as monotherapy) was “not responding properly” and the “patient's state” value (bipolar disorder; Case 14, bipolar I, combination of lithium 1600 mg/d and paroxetine 40 mg/d) was “stabilised”. For the same molecule, the depressive condition (bipolar depression) was “continued”.
